Assay results reported in patent US5447915A, “Terminally blocked antiviral peptides” (priority 1992, dated 1995).
Not every detail of the peptide structures is certain; ends, links or a residue may be inferred.

Tests used:
Type in all cases: cell-based
HIV-1 strain HTLV-IIIB = details: H9 cells
HIV = assay: Inhibition of HIV infection of CD4-expressing human peripheral blood lymphocytes, p24 antigen; details: human T cells from PBL
CD4 = target: T1, CD4 (Homo sapiens, UniProt P01730); assay: Staining of HBSCD4-M.23 cells with anti-CD4 monoclonal antibodies after preincubation with peptide; details: cells preincubated with peptide at 100 μg/ml
T1 construct: expressed in transfected cells; host or cells: HSBCD4-M.23 (clone of human pre-T cell leukemia line HSB-2 transfected with CD4 cDNA)

COC(=O)C(=O)N1CCC[C@@H]1C(=O)N[C@H](Cc1ccccc1)C(=O)OCc1ccccc1 [CPF(DD), N-carbomethoxylcarbonyl-D-Pro-D-Phe-OBn]
p24 antigen production (HIV-1 strain HTLV-IIIB; peptide concentrations greater than 100 μg/ml): completely inhibits p24 antigen production
time of maximum p24 antigen production (HIV-1 strain HTLV-IIIB; virus incubated with peptide at 40 μg/ml, without peptide approximately three days): 10 days post infection
kinetics and maximum production of p24 (HIV; peptide 40 μg/ml): does not effect either the kinetics or the maximum production of p24
HIV infection of human T cells as measured by p24 antigen (HIV; peptide 80 µg/ml and above): completely inhibit HIV infection

COC(=O)C(=O)N1CCC[C@H]1C(=O)N[C@@H](Cc1ccccc1)C(=O)OCc1ccccc1 [CPF(LL), N-carbomethoxyl-carbonyl-L-Pro-L-Phe-OBn]
staining of cells with monoclonal antibodies OKT4, OKT4C, OKT4D or Leu3A (CD4): did not affect staining
